Where a protein sequence is shown, tags need not be part of it.
Target: T1, mini-vRNAP (N4 virion RNA polymerase central domain) (Bacteriophage N4) (UniProt Q859P9)
T1 sequence: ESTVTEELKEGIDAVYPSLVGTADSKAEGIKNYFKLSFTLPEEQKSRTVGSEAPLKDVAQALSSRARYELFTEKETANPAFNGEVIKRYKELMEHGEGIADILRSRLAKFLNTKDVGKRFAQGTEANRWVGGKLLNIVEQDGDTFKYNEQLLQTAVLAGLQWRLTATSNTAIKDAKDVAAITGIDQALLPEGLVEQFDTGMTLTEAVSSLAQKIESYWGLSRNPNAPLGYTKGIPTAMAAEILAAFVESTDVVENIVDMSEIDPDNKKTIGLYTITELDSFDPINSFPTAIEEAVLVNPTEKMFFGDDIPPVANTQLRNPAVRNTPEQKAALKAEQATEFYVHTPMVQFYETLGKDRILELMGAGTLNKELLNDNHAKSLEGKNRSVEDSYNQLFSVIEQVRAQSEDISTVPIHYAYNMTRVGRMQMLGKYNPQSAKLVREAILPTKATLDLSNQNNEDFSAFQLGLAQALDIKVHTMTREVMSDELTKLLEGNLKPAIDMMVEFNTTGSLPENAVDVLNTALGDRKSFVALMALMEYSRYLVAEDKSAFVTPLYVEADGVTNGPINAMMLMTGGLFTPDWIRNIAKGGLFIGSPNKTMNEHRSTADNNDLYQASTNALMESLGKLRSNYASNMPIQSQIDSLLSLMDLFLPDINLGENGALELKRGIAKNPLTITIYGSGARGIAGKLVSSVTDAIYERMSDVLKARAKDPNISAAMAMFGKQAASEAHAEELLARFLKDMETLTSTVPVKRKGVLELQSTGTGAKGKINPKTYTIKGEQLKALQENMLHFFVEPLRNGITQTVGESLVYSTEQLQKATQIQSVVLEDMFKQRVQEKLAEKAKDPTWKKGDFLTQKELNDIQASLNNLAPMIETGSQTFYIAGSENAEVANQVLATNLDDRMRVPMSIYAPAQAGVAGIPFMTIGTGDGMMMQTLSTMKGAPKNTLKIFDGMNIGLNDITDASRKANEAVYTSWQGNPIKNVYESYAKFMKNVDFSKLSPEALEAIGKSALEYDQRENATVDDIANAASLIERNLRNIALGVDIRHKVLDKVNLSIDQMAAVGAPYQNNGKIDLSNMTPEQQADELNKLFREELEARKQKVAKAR
Experiment: activity assay
Details: in vitro transcription; digoxigenin-11-UTP and biotin-16-UTP give RNA yields comparable to UTP; purified recombinant protein; protein details: N-terminal His6 (pBAD B), TALON and MonoQ; single-stranded DNA

TCCCAGACAAAAGGTTAAGATTTCATACAGGATTGGATGCATTACTTCATCCAAAAGAAGCGGAGCTTC [control template]
activity on this sequence: active

Source: patent publication US20030096349, “N4 virion single-stranded DNA dependent RNA polymerase” (The University of Chicago, published 2003)
